Assay results published in patent US9897611B2, “Molecule library constructed on the basis of backbone structure of microprotein” (NATIONAL INSTITUTE OF ADVANCED INDUSTRIAL SCIENCE AND …, priority 2012, dated 2018).
Some entries share one result that the patent states for a list of compounds.

Biological target: T1, human IgG Fc region (Homo sapiens, UniProt P01857)
T1 construct: The Fc region was prepared by the papain digestion of a human monoclonal antibody IgG
Experiment: SPR binding affinity analysis on immobilized Fc region prepared by papain digestion of human monoclonal IgG

p17_W48A: alanine variant of p17_2 polypeptide, SEQ ID NO: 62 (GPGISAFSPGRGVYDPETGTWYDAAWHLGELVWATYYDPETGTWEPDAQRMLGQ; Selected sequence, p17_W48A)
reduction in binding affinity as a result of replacement with alanine, relative to p17_2: ≥ 100 fold
